This note sets out measurements from PMC10133297.

Protein sequences, listed by entry. Tags and fused reporters are not part of them. Residues count along the entry.
UniProt P28307, residues 21-151: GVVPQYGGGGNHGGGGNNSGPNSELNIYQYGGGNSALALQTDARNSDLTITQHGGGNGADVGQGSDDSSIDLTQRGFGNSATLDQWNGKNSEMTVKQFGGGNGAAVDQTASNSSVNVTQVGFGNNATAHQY

No constants are given. Whether binding was seen depends on the method and setting.

The test deals with T1, WT-CsgF (curli accessory protein CsgF) (E. coli) (UniProt P0AE98).
T1 sequence (chain, lysine residues sparsely labeled with Alexa-633; labeled,unlabeled 1,50): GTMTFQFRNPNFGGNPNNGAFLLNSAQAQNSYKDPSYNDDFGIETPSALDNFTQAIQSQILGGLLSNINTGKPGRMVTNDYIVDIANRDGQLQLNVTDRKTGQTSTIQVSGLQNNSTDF
Nature of the test: fluorescence microscopy of recruitment into phase-separated droplets; CsgF condensates (20 µM, from 100 µM CsgF in 25 mM potassium phosphate pH 7.5) added to the labelled curli subunit (CsgB 20 µM) at room temperature; labeled:unlabeled 1:50; both purified.

Consider “CsgA (curli major subunit) (from UniProt P28307 21-151)”, for which the binding result is on record as “no binding”.
